These are yes or no findings as the source states them, for the method shown. In cells and extracts the contact can be indirect. These calls come from enrichment with a bait or labelling near it, and not all partners need be listed.
B1: SAE1 (protein, UniProt Q9UBE0 1-346)
chain: MVEKEEAGGGISEEEAAQYDRQIRLWGLEAQKRLRASRVLLVGLKGLGAEIAKNLILAGVKGLTMLDHEQVTPEDPGAQFLIRTGSVGRNRAEASLERAQNLNPMVDVKVDTEDIEKKPESFFTQFDAVCLTCCSRDVIVKVDQICHKNSIKFFTGDVFGYHGYTFANLGEHEFVEEKTKVAKVSQGVEDGPDTKRAKLDSSETTMVKKKVVFCPVKEALEVDWSSEKAKAALKRTTSDYFLLQVLLKFRTDKGRDPSSDTYEEDSELLLQIRNDVLDSLGISPDLLPEDFVRYCFSEMAPVCAVVGGILAQEIVKALSQRDPPHNNFFFFDGMKGNGIVECLGPK

Sequences of proteins named here, by UniProt entry; tags and fusion partners are left off. Residues count along the entry.
UniProt O15550: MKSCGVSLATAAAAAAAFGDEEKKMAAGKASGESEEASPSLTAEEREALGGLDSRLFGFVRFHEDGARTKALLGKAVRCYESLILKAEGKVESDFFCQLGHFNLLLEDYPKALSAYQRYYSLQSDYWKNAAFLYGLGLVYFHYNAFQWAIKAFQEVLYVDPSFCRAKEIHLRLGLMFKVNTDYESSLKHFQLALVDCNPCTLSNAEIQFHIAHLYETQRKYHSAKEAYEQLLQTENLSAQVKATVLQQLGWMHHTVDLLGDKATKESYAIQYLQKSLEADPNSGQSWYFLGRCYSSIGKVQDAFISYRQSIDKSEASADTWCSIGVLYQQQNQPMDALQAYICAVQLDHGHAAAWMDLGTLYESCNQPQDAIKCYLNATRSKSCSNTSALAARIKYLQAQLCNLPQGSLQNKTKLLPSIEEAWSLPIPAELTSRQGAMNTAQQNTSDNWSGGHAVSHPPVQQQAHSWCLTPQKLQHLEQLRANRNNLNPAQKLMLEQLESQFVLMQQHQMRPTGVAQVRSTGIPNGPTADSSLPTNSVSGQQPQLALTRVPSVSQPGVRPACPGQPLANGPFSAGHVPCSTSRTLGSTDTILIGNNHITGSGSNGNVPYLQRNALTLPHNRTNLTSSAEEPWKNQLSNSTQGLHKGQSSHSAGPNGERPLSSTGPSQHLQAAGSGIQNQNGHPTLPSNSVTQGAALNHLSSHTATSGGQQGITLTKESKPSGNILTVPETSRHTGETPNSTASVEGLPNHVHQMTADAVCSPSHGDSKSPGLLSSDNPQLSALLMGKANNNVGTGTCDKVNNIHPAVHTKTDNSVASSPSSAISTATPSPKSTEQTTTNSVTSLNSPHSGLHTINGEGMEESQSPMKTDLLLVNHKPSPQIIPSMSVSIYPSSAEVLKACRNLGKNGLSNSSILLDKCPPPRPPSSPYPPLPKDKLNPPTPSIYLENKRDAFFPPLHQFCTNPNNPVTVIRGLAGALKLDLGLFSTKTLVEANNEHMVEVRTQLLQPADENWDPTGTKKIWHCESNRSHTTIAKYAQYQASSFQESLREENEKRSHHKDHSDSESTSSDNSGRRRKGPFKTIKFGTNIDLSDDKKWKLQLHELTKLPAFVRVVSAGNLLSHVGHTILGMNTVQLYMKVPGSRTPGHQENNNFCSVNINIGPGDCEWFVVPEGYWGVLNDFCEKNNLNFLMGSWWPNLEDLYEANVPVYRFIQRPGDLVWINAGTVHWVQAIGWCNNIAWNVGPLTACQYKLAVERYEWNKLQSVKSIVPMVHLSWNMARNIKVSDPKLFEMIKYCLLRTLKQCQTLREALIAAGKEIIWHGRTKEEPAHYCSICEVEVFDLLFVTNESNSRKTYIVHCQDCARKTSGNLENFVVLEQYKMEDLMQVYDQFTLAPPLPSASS
UniProt P12956: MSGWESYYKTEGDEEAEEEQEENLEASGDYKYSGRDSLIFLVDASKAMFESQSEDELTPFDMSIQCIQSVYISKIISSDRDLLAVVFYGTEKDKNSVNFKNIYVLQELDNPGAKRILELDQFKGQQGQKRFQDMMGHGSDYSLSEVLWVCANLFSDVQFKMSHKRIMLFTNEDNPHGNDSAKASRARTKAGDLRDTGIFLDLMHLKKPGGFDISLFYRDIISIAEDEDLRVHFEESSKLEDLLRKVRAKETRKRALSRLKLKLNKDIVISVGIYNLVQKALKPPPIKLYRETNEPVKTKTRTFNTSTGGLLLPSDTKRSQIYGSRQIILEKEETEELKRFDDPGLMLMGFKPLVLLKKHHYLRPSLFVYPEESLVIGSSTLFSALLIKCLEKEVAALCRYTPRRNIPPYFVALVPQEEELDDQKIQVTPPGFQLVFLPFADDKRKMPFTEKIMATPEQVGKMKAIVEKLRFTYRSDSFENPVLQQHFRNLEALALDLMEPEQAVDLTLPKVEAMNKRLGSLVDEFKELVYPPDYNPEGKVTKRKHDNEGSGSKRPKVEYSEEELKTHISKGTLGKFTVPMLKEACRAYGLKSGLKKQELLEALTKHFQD
UniProt P13010: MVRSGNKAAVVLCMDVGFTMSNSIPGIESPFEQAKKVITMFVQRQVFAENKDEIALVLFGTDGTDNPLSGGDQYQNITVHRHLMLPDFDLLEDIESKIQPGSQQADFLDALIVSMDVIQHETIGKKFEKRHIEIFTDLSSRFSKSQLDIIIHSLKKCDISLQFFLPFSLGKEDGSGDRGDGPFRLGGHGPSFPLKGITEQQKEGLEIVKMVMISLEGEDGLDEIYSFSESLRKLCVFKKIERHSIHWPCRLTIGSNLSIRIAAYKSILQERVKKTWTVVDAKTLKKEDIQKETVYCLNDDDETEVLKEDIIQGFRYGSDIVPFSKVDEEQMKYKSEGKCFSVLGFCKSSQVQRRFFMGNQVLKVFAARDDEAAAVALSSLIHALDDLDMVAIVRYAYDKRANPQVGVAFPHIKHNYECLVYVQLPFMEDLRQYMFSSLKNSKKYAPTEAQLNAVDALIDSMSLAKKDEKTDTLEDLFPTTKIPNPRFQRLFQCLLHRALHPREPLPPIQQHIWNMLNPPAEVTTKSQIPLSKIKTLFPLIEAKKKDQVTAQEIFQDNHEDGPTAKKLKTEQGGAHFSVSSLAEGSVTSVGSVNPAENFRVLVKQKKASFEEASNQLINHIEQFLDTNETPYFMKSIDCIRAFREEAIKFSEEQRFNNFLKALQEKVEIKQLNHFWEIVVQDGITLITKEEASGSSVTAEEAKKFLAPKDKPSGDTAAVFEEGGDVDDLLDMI
UniProt P12004: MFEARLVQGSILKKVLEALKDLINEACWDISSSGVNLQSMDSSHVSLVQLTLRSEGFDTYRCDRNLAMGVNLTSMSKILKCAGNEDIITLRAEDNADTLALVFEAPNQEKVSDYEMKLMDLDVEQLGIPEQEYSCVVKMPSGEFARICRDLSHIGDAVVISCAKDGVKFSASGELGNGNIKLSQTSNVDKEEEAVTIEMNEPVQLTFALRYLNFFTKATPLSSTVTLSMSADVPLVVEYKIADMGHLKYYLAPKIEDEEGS
UniProt P27694: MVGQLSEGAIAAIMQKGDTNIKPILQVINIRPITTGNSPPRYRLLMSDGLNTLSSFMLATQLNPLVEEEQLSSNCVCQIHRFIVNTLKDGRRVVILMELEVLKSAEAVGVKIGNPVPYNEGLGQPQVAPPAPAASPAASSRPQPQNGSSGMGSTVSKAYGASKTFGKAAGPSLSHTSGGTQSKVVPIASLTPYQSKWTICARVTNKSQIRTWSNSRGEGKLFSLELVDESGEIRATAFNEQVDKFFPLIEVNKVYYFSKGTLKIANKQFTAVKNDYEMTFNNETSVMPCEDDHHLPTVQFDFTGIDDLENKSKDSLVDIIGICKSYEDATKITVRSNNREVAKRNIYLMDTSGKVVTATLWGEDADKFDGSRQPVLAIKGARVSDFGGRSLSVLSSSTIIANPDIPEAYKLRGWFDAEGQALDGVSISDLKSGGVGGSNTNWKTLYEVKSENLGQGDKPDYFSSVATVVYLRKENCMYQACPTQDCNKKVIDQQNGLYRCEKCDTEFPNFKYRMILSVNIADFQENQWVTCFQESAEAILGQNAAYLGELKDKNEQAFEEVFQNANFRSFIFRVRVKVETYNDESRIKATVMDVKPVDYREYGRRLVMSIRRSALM
UniProt P15927: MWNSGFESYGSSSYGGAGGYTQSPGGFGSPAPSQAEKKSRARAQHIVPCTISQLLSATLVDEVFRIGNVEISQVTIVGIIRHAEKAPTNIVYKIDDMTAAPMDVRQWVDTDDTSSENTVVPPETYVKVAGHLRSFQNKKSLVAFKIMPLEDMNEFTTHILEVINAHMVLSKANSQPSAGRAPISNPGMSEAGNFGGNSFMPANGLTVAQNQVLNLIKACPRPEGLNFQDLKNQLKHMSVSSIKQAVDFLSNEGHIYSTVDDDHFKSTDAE
UniProt Q08945: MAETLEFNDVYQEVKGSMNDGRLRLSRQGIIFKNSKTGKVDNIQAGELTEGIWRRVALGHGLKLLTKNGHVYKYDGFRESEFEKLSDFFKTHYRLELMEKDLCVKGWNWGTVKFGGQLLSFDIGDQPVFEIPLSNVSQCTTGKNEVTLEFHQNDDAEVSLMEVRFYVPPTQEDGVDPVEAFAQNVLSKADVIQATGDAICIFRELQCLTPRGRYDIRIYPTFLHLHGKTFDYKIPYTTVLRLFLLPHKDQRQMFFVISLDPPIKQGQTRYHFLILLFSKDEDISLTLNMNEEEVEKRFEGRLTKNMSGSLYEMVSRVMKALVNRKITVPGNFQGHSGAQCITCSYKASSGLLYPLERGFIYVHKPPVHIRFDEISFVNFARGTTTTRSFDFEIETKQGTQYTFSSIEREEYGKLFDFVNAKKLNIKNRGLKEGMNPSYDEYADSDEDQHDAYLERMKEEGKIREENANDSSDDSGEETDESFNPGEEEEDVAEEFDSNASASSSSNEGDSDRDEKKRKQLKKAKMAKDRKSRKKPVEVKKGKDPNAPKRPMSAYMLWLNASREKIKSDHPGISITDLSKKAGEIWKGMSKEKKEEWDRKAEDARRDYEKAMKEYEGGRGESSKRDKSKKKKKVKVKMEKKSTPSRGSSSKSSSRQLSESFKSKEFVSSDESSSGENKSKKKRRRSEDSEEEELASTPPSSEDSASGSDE
UniProt P63165, residues 1-97: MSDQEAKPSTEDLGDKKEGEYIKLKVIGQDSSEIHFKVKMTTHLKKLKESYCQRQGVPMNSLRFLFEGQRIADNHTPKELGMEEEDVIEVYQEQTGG
UniProt Q7KZF4: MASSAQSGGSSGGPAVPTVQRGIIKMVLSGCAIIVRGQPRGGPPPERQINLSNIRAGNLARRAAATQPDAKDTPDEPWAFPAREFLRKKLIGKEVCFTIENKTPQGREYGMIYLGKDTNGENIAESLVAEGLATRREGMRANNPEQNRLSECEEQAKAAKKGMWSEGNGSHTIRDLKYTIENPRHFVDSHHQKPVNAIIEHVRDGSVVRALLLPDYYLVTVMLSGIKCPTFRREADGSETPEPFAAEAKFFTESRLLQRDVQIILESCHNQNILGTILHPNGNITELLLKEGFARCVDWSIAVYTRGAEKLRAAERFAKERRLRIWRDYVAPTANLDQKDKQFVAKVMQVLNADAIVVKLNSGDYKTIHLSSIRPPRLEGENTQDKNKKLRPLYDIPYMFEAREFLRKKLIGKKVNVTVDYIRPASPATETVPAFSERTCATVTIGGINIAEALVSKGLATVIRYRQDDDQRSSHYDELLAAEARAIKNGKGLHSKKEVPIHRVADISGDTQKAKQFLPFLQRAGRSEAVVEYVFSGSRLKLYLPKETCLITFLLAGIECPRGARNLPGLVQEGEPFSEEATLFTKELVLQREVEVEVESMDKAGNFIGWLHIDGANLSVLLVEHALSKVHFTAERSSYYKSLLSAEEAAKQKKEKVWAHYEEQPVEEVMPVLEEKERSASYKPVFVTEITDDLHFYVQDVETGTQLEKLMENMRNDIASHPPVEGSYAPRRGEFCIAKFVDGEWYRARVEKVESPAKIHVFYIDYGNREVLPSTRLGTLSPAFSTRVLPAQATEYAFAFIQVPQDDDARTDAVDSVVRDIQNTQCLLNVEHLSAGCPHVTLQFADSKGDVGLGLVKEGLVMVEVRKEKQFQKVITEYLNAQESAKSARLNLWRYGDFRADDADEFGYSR

Target: KDM6A (bait of the co-IP with mass spectrometry and of the co-IP with Ku70; endogenous or tagged not told) (UniProt O15550)
Assay: affinity purification with mass spectrometry; KDM6A co-IP on magnetic beads from sonicated cell lysate (20 mM HEPES pH 8.0, 150 mM NaCl, 1 mM EDTA, 1.5 mM MgCl2, 1% Triton X-100, 10% glycerol), 4 °C 2 h; SDS-PAGE, silver staining, mass spectrometry; cells not named

| binding | Molecule |
| --- | --- |
| binds | B1 |

Target: KDM6A (bait of the co-IP with mass spectrometry and of the co-IP with Ku70; endogenous or tagged not told) (UniProt O15550)
Assay: as above
Remark: another data set of the same source

| binding | Molecule |
| --- | --- |
| binds | Ku70 (from UniProt P12956 1-609) |
| binds | Ku80 (from UniProt P13010 1-732) |
| binds | PCNA (from UniProt P12004 1-261) |
| binds | RPA1 (endogenous, hit of the KDM6A co-IP with mass spectrometry) (from UniProt P27694 1-616) |
| binds | RPA2 (from UniProt P15927 1-270) |
| binds | SMARCA5 (from UniProt O60264 1-1052) |
| binds | SSRP (from UniProt Q08945 1-709) |
| binds | SUMO1 (endogenous, hit of the KDM6A co-IP with mass spectrometry) (from UniProt P63165 1-97) |
| binds | staphylococcal nuclease domain-containing protein 1 (SND1), endogenous (from UniProt Q7KZF4 1-910) |
